Usually AC50 stands for the concentration at which the activity in the assay is half-maximal.

The assay is described as follows: qHTS Assay for Lipid Storage Modulators in Drosophila S3 Cells.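 On cell number change: cells counted by Cell Tracker Red CMTPX staining in the red channel.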 The conditions noted are these: BODIPY lipid droplet fluorescence, 18-24 h; for cell number change: measured here: cell count max response, cells fed with added oleic acid. In short, it runs like this:
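Drosophila S3 cells loaded with oleic acid (400 uM, as added) and compounds at several concentrations; lipid droplets imaged by 488-nm laser-scanning cytometry, 500–530 nm intensity and object ratio to cell channel. Percent activity normalized to 20 uM Triacsin C.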
(In general: qHTS replaces the single test concentration by a dilution series.)

Setting [1] is: measured here: cell number channel AC50, cells fed with added oleic acid.
Where [2] appears, read: measured here: lipid fluorescence (Fed channel) AC50, cells fed with added oleic acid.

Some of the results follow. The main result of the screen is listed elsewhere. These columns were measured beside it and carry no call. The list favours compounds with an active or inconclusive main result. Potencies come from curve fits of mixed quality, noted in brackets.

Take `CCS(=O)(=O)Nc1cccc(C(=C2CCCCC2)c2cnc[nH]2)c1`: the cell number change was 29.4%. Under setting [1], the half-maximal activity concentration (AC50) is 0.146 µM [rising, full curve, poor fit]. Besides, the AC50 under setting [2] is 0.517 µM [rising, full curve].

With `Cc1cc(C)cc(N2C(=O)NC(=O)/C(=C\c3cccn3-c3ccc(Cl)cc3)C2=O)c1`, the cell number change was -41%. Further, the AC50 under setting [1] is 6.51 µM [falling, full curve].

As to `Cc1cc(-c2ccccc2)cc(C)[n+]1Cc1ccccc1`, the cell number change is -27.2%. Moreover, under setting [2], the AC50 was 16.4 µM [rising, single point].

Consider `COC(=O)C1=C(c2ccc(OCc3ccccc3)cc2)C[C@@H]2CC[C@H]1N2C(=O)NCc1ccc(OC)c(OC)c1`, for which the cell number change is -26.3%. For the same compound, under setting [1], the AC50 is 3.66 µM [falling, single point]. For the same compound, the AC50 under setting [2] was 23.1 µM [falling, single point].

In the case of `Clc1ccc2c(N3CCNCC3)ccnc2c1`, the cell number change was found to be 6.92%. For the same compound, the concentration at half-maximal activity (AC50) under setting [2] was 16.4 µM [falling, partial curve].

With `CN(C)C1(CNC(=O)Nc2ccc(Cl)c(Cl)c2)CCCCC1`, the cell number change turned out to be 9.21%. Also, under setting [2], the AC50 is 5.62 µM [rising, single point].

As to `CC(C)CCNC(=O)c1c(N)n(CC2CCCO2)c2nc3ccccc3nc12` (stereo not given), the cell number change is -21.2%. Under setting [2], the AC50 was 1.46 µM [rising, partial curve].

Take `COc1ccc(Cn2c(N)c(C(=O)NCc3ccco3)c3nc4ccccc4nc32)cc1`: the cell number change was -32%. Under setting [1], the AC50 was 16.4 µM [falling, partial curve, poor fit].

Turning to `O=c1[nH]c(=S)n(C2CC2)c(O)c1/C=N/N1CCOCC1`, the cell number change was -25.4%. Besides, under setting [2], the half-maximal activity concentration (AC50) was 0.291 µM [falling, full curve].

`Cc1ccccc1N`: the cell number change was determined as 3.39%. Further, the concentration at half-maximal activity (AC50) under setting [2] was 0.116 µM [rising, single point].

Consider `COc1ccccc1NC1=NCCS1`, for which, under setting [2], the AC50 is 18.4 µM [falling, single point].

`CC(C)(C)N1Cc2ccccc2C1=N`: the cell number change is -7.96%.

For `COc1ccc(C(C)=O)cc1CN1CC=C(c2ccccc2)CC1`, the cell number change was found to be 2.1%. Moreover, the AC50 under setting [2] was 6.51 µM [rising, single point].

For the compound `O=P(O)(O)Cc1c(Cl)cccc1Cl`, the cell number change was -14.5%. Besides, the AC50 under setting [1] was 6.51 µM [falling, single point]. For the same compound, under setting [2], the AC50 is 1.3 µM [falling, full curve, poor fit].

Consider `O=C1CC(=O)N(c2ccc(Cl)cc2Cl)C(=O)N1`, for which the cell number change is -5.55%. Under setting [2], the AC50 was 2.31 µM [falling, full curve].

Take `O=C(O)CCCc1ccc(N(CCCl)CCCl)cc1`: the cell number change came out at 0.0039%. For the same compound, the AC50 under setting [1] is 2.06 µM [falling, single point]. Moreover, the AC50 under setting [2] is 3.26 µM [falling, partial curve].

On to `O=[N+]([O-])c1ccc(N2CCNCC2)cc1NCc1ccco1`, for which the cell number change was -37.1%. Further, the AC50 under setting [1] is 14.6 µM [falling, partial curve, poor fit]. The AC50 under setting [2] is 29.1 µM [falling, single point].

Consider `CC(C)N1C(=O)CC2(CC[N+](C)(CCOC(=O)C(O)(c3ccccc3)c3ccccc3)CC2)C1=O` (stereo not given), for which the cell number change is -22.1%. Also, the AC50 under setting [1] was 0.058 µM [falling, full curve, poor fit].

Consider `COP(=O)(CC(=O)O)c1ccccc1` (stereo not given), for which the cell number change is -61.6%. Further, the AC50 under setting [1] is 20.6 µM [falling, partial curve, poor fit]. The AC50 under setting [2] is 29.1 µM [falling, single point].

In the case of `Nc1c(C(=O)NCCCc2ccccc2)c2nc3ccccc3nc2n1Cc1cccs1`, the cell number change was -79.8%. Moreover, under setting [1], the AC50 was 23.1 µM [falling, single point]. Under setting [2], the AC50 was 1.46 µM [rising, partial curve].

Take `Cc1nnc2ccc(N3CCN(C)CC3)nn12`: the cell number change came to 30%. In addition, the AC50 under setting [1] is 0.206 µM [rising, full curve, poor fit].

`Cc1nc2ccccc2c(=O)n1-c1cccc(C(F)(F)F)c1`: the cell number change is -20.7%. Further, the AC50 under setting [2] was 6.51 µM [rising, single point].

With `Cc1ccc(C(C)C)c(OCC(=O)N2CCN(CC(=O)N3CCOCC3)CC2)c1`, the cell number change stood at 7.07%. In addition, the AC50 under setting [2] was 2.06 µM [falling, partial curve, poor fit].

For the compound `Oc1ccc(/C=N/NP(=S)(c2ccccc2)c2ccccc2)c(O)c1O`, the cell number change came to 54.4%.

For `CCOc1ccc(-n2c(O)c(C=NCCCn3ccnc3)c(=O)[nH]c2=O)cc1`, the cell number change worked out at 4.74%. Moreover, under setting [2], the AC50 was 0.0326 µM [falling, full curve].

Take `CC1CCC(N2CCN(C(=O)COc3ccccc3)CC2)CC1` (stereo not given): the cell number change was 8.87%. Further, under setting [2], the AC50 was 29.1 µM [rising, single point].

Consider `Clc1ccc(CCNCc2ccncc2)c(Cl)c1`, for which the cell number change came to 31.2%. Moreover, the AC50 under setting [1] was 32.6 µM [rising, single point].

For the compound `O=c1[nH]c(=O)n(Cc2ccco2)c(O)c1C=NCCCn1ccnc1`, the cell number change was -92.3%. In addition, the AC50 under setting [1] is 32.6 µM [falling, partial curve].

For the compound `COc1cc2c(cc1OC)C(C(=O)NCCC(C)C)C1CCCCN1C2=O` (stereo not given), the cell number change is -19.1%. The AC50 under setting [2] was 29.1 µM [falling, single point].

Turning to `Cc1cc(OC(C)C(=O)NCC(O)c2ccccc2)c2c3c(c(=O)oc2c1)CCCC3` (stereo not given), the cell number change was -6.11%. Besides, under setting [2], the AC50 is 29.1 µM [rising, single point].

In the case of `CC(C)(O)C(=O)Nc1ccc([N+](=O)[O-])c(C(F)(F)F)c1`, the cell number change was -9.83%. Further, the AC50 under setting [2] was 0.206 µM [rising, partial curve].

On to `FC(F)(F)/C(=N\P(=S)(N1CCOCC1)N1CCOCC1)N1CCOCC1`, for which the cell number change was -6.97%. Moreover, the AC50 under setting [2] was 0.651 µM [falling, partial curve, poor fit].

Regarding `O=c1cccc2n1CC1CNCC2C1` (stereo not given), the cell number change is -4.88%. The AC50 under setting [2] is 0.326 µM [falling, full curve, poor fit].

Regarding `CC(=NCc1ccco1)c1c(O)n(C)c(=O)n(C)c1=O`, the cell number change was -4.68%. In addition, the AC50 under setting [2] was 16.4 µM [falling, single point].

On to `O=C(O)COc1ccccc1/C=C1\C(=O)NC(=O)N(CCC2=CCCCC2)C1=O`, for which the cell number change is -21.4%. Moreover, the AC50 under setting [2] is 4.11 µM [falling, full curve, poor fit].

Take `CCCCCCn1c(=O)c(C(=O)Nc2c(C)n(C)n(-c3ccccc3)c2=O)c(O)c2ccccc21`: the cell number change is 3.66%. The AC50 under setting [2] is 20.6 µM [rising, single point].

With `O=C1CN=C(c2cccc(Br)c2)c2cc(Br)ccc2N1`, the cell number change is -40.7%. Further, under setting [1], the AC50 was 11.6 µM [falling, partial curve].

Regarding `CN1[C@H]2CC[C@@H]1C(C(=O)N1CCOCC1)=C(O)C2`, the cell number change was -6.86%. Further, under setting [2], the AC50 is 0.146 µM [falling, full curve, poor fit].

Consider `O=c1[nH]c(=S)[nH]c(O)c1N=Nc1ccc2c(c1)OCCO2`, for which the cell number change was -13.1%. The AC50 under setting [2] was 29.1 µM [falling, partial curve, poor fit].

Take `Cc1c(C(=O)N2CCC3(CC2)OCCO3)oc2ccccc12`: the cell number change stood at 102%. Under setting [1], the concentration at half-maximal activity (AC50) was 6.51 µM [falling, single point]. The AC50 under setting [2] was 23.1 µM [rising, single point].

Turning to `CCOc1cc(CNC(C)C(O)c2ccccc2)cc(Cl)c1OCC` (stereo not given), the cell number change is -27.6%. Under setting [2], the half-maximal activity concentration (AC50) was 14.6 µM [falling, single point].

With `O=c1[nH]c(=S)[nH]c(O)c1CN1CCCCC1`, the cell number change is -27%. For the same compound, under setting [1], the AC50 is 0.092 µM [falling, full curve, poor fit]. Further, the AC50 under setting [2] was 0.13 µM [falling, full curve, poor fit].

For `COc1ccc2[nH]c3c(c2c1)CCN=C3C`, the concentration at half-maximal activity (AC50) under setting [2] was 6.51 µM [rising, single point].

As for `CCc1ccccc1Cn1c(=O)oc2cccnc21`, under setting [1], the AC50 is 0.82 µM [falling, partial curve].

`CC(C)(C)NS(=O)(=O)c1ccc(OCC(=O)N2CCN(Cc3ccccc3)CC2)cc1`: the cell number change was -31.5%. Further, the AC50 under setting [1] was 20.6 µM [falling, single point]. The AC50 under setting [2] was 13 µM [falling, partial curve].

`CCCCNC(=O)c1c(N)n(CCCOC)c2nc3ccccc3nc12`: the cell number change was -33.7%. In addition, the AC50 under setting [1] was 29.1 µM [falling, single point]. Further, the AC50 under setting [2] was 1.3 µM [rising, partial curve, poor fit].

For the compound `Cc1cnc(-n2c(=S)[nH]c3ccccc3c2=O)s1`, the cell number change is 11.6%. Further, the AC50 under setting [2] is 1.84 µM [rising, partial curve, poor fit].

Regarding `CCCCn1c(=O)c(C(=O)Nc2ccccn2)c(O)c2ccccc21`, the AC50 under setting [2] is 29.1 µM [rising, single point].

With `COC(=O)C1=C(c2ccc(F)cc2OCc2ccccc2)C[C@@H]2CC[C@H]1N2C(=O)NCc1cccc(OC)c1`, the cell number change was -3.25%. For the same compound, under setting [1], the AC50 was 1.46 µM [falling, partial curve]. The AC50 under setting [2] is 18.4 µM [falling, partial curve].

With `O=C(NC(=O)N1CCC2(CC1)OCCO2)c1ccc(Cl)cc1`, the cell number change amounted to 18.5%.

As for `COc1ccc(OC)c(-n2c(O)c(C=Nc3c(C)n(C)n(-c4ccccc4)c3=O)c(=O)[nH]c2=S)c1`, the AC50 under setting [1] was 0.82 µM [falling, full curve, poor fit] and the AC50 under setting [2] was 0.461 µM [falling, partial curve, poor fit].

Regarding `COC(=O)C1=C(c2ccc(OC)c(OC)c2)C[C@@H]2CC[C@H]1N2C(=O)NCCO`, the cell number change worked out at 15.3%. In addition, the AC50 under setting [2] is 0.00517 µM [rising, full curve, poor fit].

Take `COc1ccc(-n2c(O)c(C=NCCN3CCN(C(C)=O)CC3)c(=O)[nH]c2=S)cc1`: the cell number change is -18.1%. Under setting [2], the AC50 was 6.51 µM [rising, single point].

Turning to `CCCC(C)n1[nH]c(=O)c2c1NC(=O)CSC2c1ccc(OC)cc1` (stereo not given), the cell number change is 0.221%. The AC50 under setting [2] was 0.651 µM [falling, full curve, poor fit].

As for `Cc1cc2c(s1)NC(=O)CN=C2c1cccs1`, the cell number change amounted to 46.6%. In addition, the AC50 under setting [1] was 0.82 µM [rising, full curve, poor fit]. Moreover, under setting [2], the AC50 is 1.16 µM [rising, full curve].

Take `CN1C(=O)N(C)C(=O)C2(Cc3cc([N+](=O)[O-])ccc3N3CCN(C(=O)c4ccccc4)CC32)C1=O` (stereo not given): the cell number change was -26.7%. The AC50 under setting [2] is 6.51 µM [rising, partial curve].

For the compound `COc1cc(/C=C/c2nc3ccccc3c(=O)n2-c2cccc(O)c2)ccc1O`, the cell number change was -25.4%. In addition, the AC50 under setting [2] is 20.6 µM [falling, partial curve, poor fit].

The values are drawn from PubChem BioAssay AID2685 (National Center for Advancing Translational Sciences (NCATS), 2010).
